Taken from: PubChem BioAssay AID720505 (Drosophila RNAi Screening Center, 2013)

Aim: 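Genes needed for store-operated calcium entry in fly cells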 (primary screen)
Cells: Drosophila S2R+ cells
Reagents: long dsRNA against Drosophila genes
Challenge: thapsigargin (2 µM) in calcium-free buffer to empty internal stores, then 2 mM calcium added back
Detection: 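Fluo-4 signal in 384-well plates read on a FLIPR after thapsigargin (2 µM, calcium-free) store depletion and 2 mM calcium add-back; unnormalised mean endpoint per well; screen run twice, selected wells retested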
Reading the numbers: calcium signal: higher = more calcium entry after store depletion
Rule for the call: 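Knock-downs counted as hits when calcium entry dropped relative to STIM1 positive and Rho1 negative controls present on each plate; roughly 1500 genes called, with reductions of differing size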
Calls: active = called as lowering calcium entry; inactive = not called
The deposit covers about 20,000 reagents; below is a random part of those that have a named target and a result. In the full data, about 2,100 (10%) got an active call. 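Raw plate signals without normalisation; calls rest on control-based scores that were not deposited; replicate 2 separates called from uncalled poorly.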 Reagents against one gene are numbered here. A plus sign joins genes that one reagent is predicted to hit. Not given: the amount of reagent, the time to read-out.

After knock-down of Cpr60D (GeneID 246492) the results were calcium signal, replicate 1 = 136; calcium signal, replicate 2 = 169; inactive.
With knock-down of Cftr (GeneID 42928) the results were calcium signal, replicate 1 = 162; calcium signal, replicate 2 = 205; inactive.
For Galphas (GeneID 37805), the entry reads calcium signal, replicate 1 = 152; calcium signal, replicate 2 = 118; inactive.
Knock-down of IP3K1 + hpRNA:CR18854 gave: calcium signal, replicate 1 = 111; calcium signal, replicate 2 = 158; inactive.
Against Marf1 (GeneID 49895) #1, the values are calcium signal, replicate 1 = 167; calcium signal, replicate 2 = 89.2; inactive.
Marf1 (GeneID 49895) #2 gave calcium signal, replicate 1 = 87.1; calcium signal, replicate 2 = 8940; inactive.
Against Drep2 (GeneID 35955), the entry reads calcium signal, replicate 1 = 221; calcium signal, replicate 2 = 119; inactive.
Depletion of CG32639 (GeneID 318134) resulted in: inactive.
CG10752 (GeneID 39467) showed calcium signal, replicate 1 = 95.7; calcium signal, replicate 2 = 83.3; inactive.
After knock-down of Tctp (GeneID 41341), the screen gave calcium signal, replicate 1 = 103; calcium signal, replicate 2 = 102; inactive.
For CG3625 (GeneID 33198) #1 the deposit lists calcium signal, replicate 1 = 74.1; calcium signal, replicate 2 = 97.7; inactive.
With knock-down of CG3625 (GeneID 33198) #2, the screen gave calcium signal, replicate 1 = 103; calcium signal, replicate 2 = 239; inactive.

2 entries from above, reformatted.
{"target": "Cpr60D (GeneID 246492)", "reagent no.": 1, "calcium signal, replicate 1": 136, "calcium signal, replicate 2": 169, "Call": "inactive"}
{"target": "Cftr (GeneID 42928)", "reagent no.": 1, "calcium signal, replicate 1": 162, "calcium signal, replicate 2": 205, "Call": "inactive"}
